PMC5748837
For some assays here: Negatives hold for the conditions tested. For some assays here: At least one verdict rests on a figure or table, not on a statement of the authors. For some assays here: Protein sequences can lack the tags named with them. For some assays here: Weaker means in comparison with the reference protein, sequence or condition of that experiment. For some assays here: For at least one entry, the source does not settle the construct or the ends of the probe.

Chains of the proteins cited; added tags and fusions are not shown. A line that says so, or that is headed by a name, gives the form on record, which may keep a tag or linker.
INTS3N (human), one chain, as listed by the source: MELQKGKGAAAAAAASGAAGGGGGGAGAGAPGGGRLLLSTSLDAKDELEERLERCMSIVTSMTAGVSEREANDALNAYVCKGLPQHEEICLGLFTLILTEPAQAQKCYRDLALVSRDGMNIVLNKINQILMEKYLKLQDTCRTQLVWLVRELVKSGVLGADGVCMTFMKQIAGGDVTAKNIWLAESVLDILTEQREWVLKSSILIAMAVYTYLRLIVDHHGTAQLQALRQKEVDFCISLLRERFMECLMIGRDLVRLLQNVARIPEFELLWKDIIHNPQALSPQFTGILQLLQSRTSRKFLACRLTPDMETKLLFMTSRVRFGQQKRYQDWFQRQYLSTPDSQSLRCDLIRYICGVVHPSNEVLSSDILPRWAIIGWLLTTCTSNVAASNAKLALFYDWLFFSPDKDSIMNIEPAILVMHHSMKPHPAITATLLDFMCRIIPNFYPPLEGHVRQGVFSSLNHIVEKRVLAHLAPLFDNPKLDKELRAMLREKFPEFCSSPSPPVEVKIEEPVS
INTS3FL (human), one chain, as listed by the source: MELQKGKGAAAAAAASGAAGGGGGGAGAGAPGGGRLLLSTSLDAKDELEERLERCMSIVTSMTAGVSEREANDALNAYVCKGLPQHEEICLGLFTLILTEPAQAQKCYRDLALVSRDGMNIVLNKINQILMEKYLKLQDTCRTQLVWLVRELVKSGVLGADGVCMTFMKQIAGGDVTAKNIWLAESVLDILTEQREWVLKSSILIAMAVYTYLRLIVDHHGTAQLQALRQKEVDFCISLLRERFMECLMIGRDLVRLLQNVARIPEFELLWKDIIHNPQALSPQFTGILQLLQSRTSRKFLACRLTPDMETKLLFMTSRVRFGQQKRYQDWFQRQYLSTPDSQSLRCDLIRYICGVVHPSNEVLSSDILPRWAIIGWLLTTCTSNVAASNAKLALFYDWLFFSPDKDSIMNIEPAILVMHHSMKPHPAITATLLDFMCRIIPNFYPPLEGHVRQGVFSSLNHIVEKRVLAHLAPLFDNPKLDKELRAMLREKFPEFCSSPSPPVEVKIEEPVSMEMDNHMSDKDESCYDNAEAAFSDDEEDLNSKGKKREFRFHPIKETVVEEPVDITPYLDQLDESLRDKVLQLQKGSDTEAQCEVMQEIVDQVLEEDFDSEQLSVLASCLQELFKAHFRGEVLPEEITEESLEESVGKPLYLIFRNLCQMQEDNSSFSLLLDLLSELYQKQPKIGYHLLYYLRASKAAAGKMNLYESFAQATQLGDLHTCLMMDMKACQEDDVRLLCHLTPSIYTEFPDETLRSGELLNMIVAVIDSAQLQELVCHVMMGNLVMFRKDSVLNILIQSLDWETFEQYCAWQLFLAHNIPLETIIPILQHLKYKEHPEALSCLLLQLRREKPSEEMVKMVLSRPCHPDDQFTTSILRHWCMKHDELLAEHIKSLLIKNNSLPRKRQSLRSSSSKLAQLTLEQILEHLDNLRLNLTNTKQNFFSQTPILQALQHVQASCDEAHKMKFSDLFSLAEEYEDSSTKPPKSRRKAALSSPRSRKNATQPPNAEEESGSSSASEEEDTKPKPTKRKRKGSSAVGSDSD

Assays:
Test in all cases: EMSA
C9ORF80 (human) = molecular target: T1, C9ORF80 (human) (UniProt Q9NRY2); conditions: EMSA: 20 mM HEPES pH 7.3, 100 mM KCl, 1 mM MgCl2, 1 mg/ml BSA, 1 mM DTT, 6% glycerol, 0.5 nM 32P substrate, 30 min on ice, 5% native PAGE, 1x TBE, 4°C, recombinant protein, residues 1-104, protein details: His (pET28a), label: 5'-32P; for binding result: single-stranded DNA
T1 sequence (looked up): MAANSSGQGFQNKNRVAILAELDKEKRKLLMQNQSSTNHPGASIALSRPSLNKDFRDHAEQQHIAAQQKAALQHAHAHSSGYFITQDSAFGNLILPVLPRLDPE

INTS3FL (human) = conditions: EMSA: 20 mM HEPES pH 7.3, 100 mM KCl, 1 mM MgCl2, 1 mg/ml BSA, 1 mM DTT, 6% glycerol, 0.5 nM 32P substrate, 30 min on ice; 5% native PAGE, 1x TBE, 4°C; recombinant protein; residues 1-1042; protein details: GST cleaved (PreScission); label: 5'-32P; single-stranded DNA
INTS3FL + hNABP1 (hSSB2) = conditions: EMSA: 20 mM HEPES pH 7.3, 100 mM KCl, 1 mM MgCl2, 1 mg/ml BSA, 1 mM DTT, 6% glycerol, 0.5 nM 32P substrate, 30 min on ice, 5% native PAGE, 1x TBE, 4°C, recombinant protein, protein details: GST cleaved (PreScission),His, label: 5'-32P
INTS3FL + hNABP2 (hSSB1) = conditions: EMSA: 20 mM HEPES pH 7.3, 100 mM KCl, 1 mM MgCl2, 1 mg/ml BSA, 1 mM DTT, 6% glycerol, 0.5 nM 32P substrate, 30 min on ice, 5% native PAGE, 1x TBE, 4°C, recombinant protein, protein details: GST cleaved (PreScission),His, label: 5'-32P
[1] = system: INTS3FL in co-expressed complex + hNABP2 (hSSB1) + C9ORF80; conditions: EMSA: 20 mM HEPES pH 7.3, 100 mM KCl, 1 mM MgCl2, 1 mg/ml BSA, 1 mM DTT, 6% glycerol, 0.5 nM 32P substrate, 30 min on ice; 5% native PAGE, 1x TBE, 4°C; recombinant protein; label: 5'-32P; single-stranded DNA
INTS3N (human) = conditions: EMSA: 20 mM HEPES pH 7.3, 100 mM KCl, 1 mM MgCl2, 1 mg/ml BSA, 1 mM DTT, 6% glycerol, 0.5 nM 32P substrate, 30 min on ice, 5% native PAGE, 1x TBE, 4°C, recombinant protein, residues 1-513, label: 5'-32P
[2] = system: INTS3FL in co-expressed complex + hNABP1 (hSSB2) + C9ORF80; conditions: EMSA: 20 mM HEPES pH 7.3, 100 mM KCl, 1 mM MgCl2, 1 mg/ml BSA, 1 mM DTT, 6% glycerol, 0.5 nM 32P substrate, 30 min on ice; 5% native PAGE, 1x TBE, 4°C; recombinant protein; label: 5'-32P

What does the source list for TTTTTTTTTT [dT10]?
binding result (C9ORF80 (human)): no binding; binding result (INTS3FL (human)): no binding

Does TTTTTTTTTTTTTTTTTTTT [dT20] bind (C9ORF80 (human))?
Result: binds

Does TTTTTTTTTTTTTTTTTTTT [dT20] bind (INTS3FL (human))?
Result: no binding

Does TTTTTTTTTTTTTTTTTTTTTTTTTTTTTT [dT30] bind (INTS3FL + hNABP1 (hSSB2); single-stranded DNA)?
Result: binds more weakly

Does TTTTTTTTTTTTTTTTTTTTTTTTTTTTTT [dT30] bind (INTS3FL + hNABP2 (hSSB1); single-stranded DNA)?
Result: binds more weakly

Does TTTTTTTTTTTTTTTTTTTTTTTTTTTTTT [dT30] bind [1]?
Result: binds more weakly

Does TTTTTTTTTTTTTTTTTTTTTTTTTTTTTT [dT30] bind (INTS3N (human); single-stranded DNA)?
Result: binds more weakly

Does “TTTTTTTTTTTTTTTTTTTTTTTTTTTTTTTTTTTTTTTTTTTTTTTTTTTTTTTTTTTT [dT60]” bind (C9ORF80 (human))?
Result: binds

UUUUUUUUUUUUUUUUUUUUUUUUUUUUUU [rU30] was tested. Which Kd (C9ORF80 (human)) did it give?
Its Kd is greater than 85 µM.

Does UUUUUUUUUUUUUUUUUUUUUUUUUUUUUU [rU30] bind (INTS3FL + hNABP1 (hSSB2))?
Result: binds more weakly

Does UUUUUUUUUUUUUUUUUUUUUUUUUUUUUU [rU30] bind (INTS3FL + hNABP2 (hSSB1))?
Result: binds more weakly

Does UUUUUUUUUUUUUUUUUUUUUUUUUUUUUU [rU30] bind [2]?
Result: binds more weakly

Does UUUUUUUUUUUUUUUUUUUUUUUUUUUUUU [rU30] bind (INTS3N (human))?
Result: binds more weakly
